Reference: US20250123282A1, “METHODS FOR EVALUATION AND TREATMENT OF TYROSINE KINASE INHIBITOR (TKI)-RESISTANT ACUTE MYELOID LEUKEMIA” (LOMA LINDA UNIVERSITY, priority 2021, published 2025)
For at least one compound, name, drawing or mass did not settle the structure.

Experiments:
[1] = test system: MOLM-14 cells; assay: FACS of TKI-treated MOLM-14 cells in vitro (viable blasts, pBAD); type: cell-based, human
Experimental: (§1) The AML cells were analyzed at different time points after exposure to TKI (3 days, 10 days, 20 days, and 28 days). […] After 3 days, FACS of the surface markers and intracellular proteins, including CD14, CD33, CD44, and Ki67, were performed. FIGS. 1A-1E depicts therapeutic effect of different TKIs on MV4-11 and MOLM-14 cells in vitro (N=6). […] The circles indicate the group of viable blasts located in a FACS plot and green arrows indicate the dying tendency of blasts which will become positive for viability dye during the next few days. FIGS. 1C and 1D are graphical representations of the cumulative FACS percentage data of viable MV4-11 and MOLM-14 cells. *P<0.05. […]
(§2) Flow Cytometry (FACS). […] About 1×10^4˜10^6 cells in 100 μl FACS buffer (PBS containing 1% FBS and 0.05% sodium azide) were stained with various fluorescence-conjugated antibodies specific for the desired cell surface proteins at 4° C. for 30 min. The surface-stained cells were then fixed and permeabilized using the appropriate reagents (e.g. the BD Pharmingen Cytofix/Cytoperm buffer) and stained with different fluorescence-conjugated antibodies specific for the desired intracellular proteins at 4° C. for 2 hours in the permeabilizing buffer (e.g. the BD Perm/Wash buffer). […] Finally, the cells were washed twice in the permeabilizing buffer and twice in the FACS buffer before being analyzed on the BD FACSAria II. […]

[2] = test system: MV4-11; assay: GILT-based combinatory treatments for MV4-11 in vitro (synergy, relapse, FACS, imaging); type: cell-based, human; conditions: dosing as in Table 1
Description: FLT3, the most frequently mutated gene in AML patients, is often associated with poorer overall survival with an increased risk of relapse. However, the anti-leukemic effects of the latest FLT3 inhibitors as monotherapy or in combination with standard treatments are constrained by a short duration of response and a high rate of relapse. Accordingly, whether targeting the compensation pathways along with administration of FLT3 inhibitors, e.g., GILT, prevents relapse. A list of the in vitro trials of GILT in combination with inhibitors (commercially available) targeting new pathways on MV4-11 is provided in Table 1. […]
as §2

[3] = test system: MV4-11 cells; assay: Phase-bright imaging of re-growth of TKI-treated MV4-11; type: cell-based, human
Description: (§3) To follow the cell fate of TKI-treated MV4-11 and MOLM-14, culturing of blasts were continued by performing medium change every 2-3 days. […] The BAD protein is a pro-apoptotic member of the BCL-2 gene family, which is involved in initiating apoptosis. Dephosphorylated BAD is pro-apoptotic by binding BCL-2 and inactivating BCL-2, while phosphorylated BAD (pBAD) is anti-apoptotic by leaving BCL-2 free to inhibit BAX-triggered apoptosis.
(§4) Small Molecular Inhibitors and in vitro & ex vivo Treatment. […] The dose of 80 nM for the four TKIs was selected based on their dose-dependent cytotoxicity in previous reports. […] Both GILT and QUIZ were reported to start to suppress the tumorigenic clustering and c-Kit at the dose of 80 nM. […] The combination of 5 μM 5-Azacitidine (AZA) and 80 nM 1α,25-Dihydroxyvitamin D3 (VD3) was added to the experimental group similar to the previous report. As combination agents to treat blasts in vitro, one dose of 80 nM GILT with one dose of either 100 nM Venetoclax (BCL2 inhibitor), 10 μM (R)-Lisofylline (STAT4 inhibitor), 100 nM AZD1208 (PIM inhibitor), 500 nM PF-06826647 (TYK2 inhibitor), or 500 nM AT9283 (JAK2/3 inhibitor) were added to 1 ml of 1×10^6 cells for each experimental group in 24 well plates. Three days after the one dose treatment, cells were then collected for either analyses by FACS and qPCR, or re-plated into 24 well plates for continued culture. At different time points, re-plated cells were collected for analyses by FACS and qPCR. Medium change was performed every 2-3 days.
Imaging Acquisition. Phase-bright images were taken using an Olympus 1X71 inverted microscope and were processed using an Olympus cellSens Dimension 1.15 Imaging Software.

[4] = test system: MV4-11 cells; assay: FACS of TKI-treated MV4-11 cells in vitro (viable blasts, Ki67, pBAD); type: cell-based, human
Experimental: as §1, §2

[5] = test system: MV4-11; conditions: cited from earlier work
[6] = test system: MV4-11 cells; assay: Human cytokine proteome profile array of cell-free supernatants from GILT-treated MV4-11; type: cell-based; conditions: one dose of GILT
Experimental: To identify the protein(s) responsible for initiation of the survival mechanism and subsequent proliferation of AML blasts, human cytokine proteome profile arrays of cell-free supernatants from GILT-treated MV4-11's cultures were performed. […] Under the no treatment (No Tx) condition, MV4-11 releases numerous cytokines such as MIF in their supernatant; however, one dose of GILT-treatment eliminated release of a variety of cytokines such as osteopontin (arrows, FIG. 7A), a protein closely associated with adverse prognosis in AML patients. Next, bone marrow mononuclear cells (BMMNC) from AML patients were treated for 3 days ex vivo.
Proteomics and Blotting Analysis. Three days after the one dose treatment, the cell-free supernatants were collected for human cytokine profile assay. The Human XL Cytokine Array Kit (Catalog #ARY022B, R&D) was used according to the manufacturer's procedures and exposed to X-ray film (<10 minutes). Profiles of mean spot pixel density were created using a transmission-mode scanner and Image J analysis software.

[7] = test system: MOLM-14 cells; assay: Phase-bright imaging of re-growth of TKI-treated MOLM-14; type: cell-based, human; conditions: 10 days after TKI treatment
Description: as §3
as §4, with “At different time points, re-plated cells were collected for analyses by FACS and qPCR. Medium change was performed every 2-3 days.” left out

[8] = 3 days after one dose of 80 nM TKI, vs non-treatment controls

| SMILES | viable MOLM-14 blasts (FACS) [1, 8] | MV4-11 relapse in vitro (2 weeks) [2] | re-growth / tumorigenic clusters of MV4-11 ([3]; 10 days after TKI treatment) | re-growth / tumorigenic clusters of MV4-11 ([3]; 20 days after TKI treatment) | viable MV4-11 blasts (FACS) [4, 8] | dose at which suppression of tumorigenic clustering and c-Kit starts [5] | release of osteopontin in the supernatant [6] | re-growth / tumorigenic clusters of MOLM-14 [7] | pBAD expression in MOLM-14 (FACS) ([1]; 3 days after the treatment) | newly formed blast clusters (morphology) ([3]; 3 days after TKI treatment) | pBAD expression in MV4-11 (FACS) ([4]; 3 days after the treatment) |
| --- | --- | --- | --- | --- | --- | --- | --- | --- | --- | --- | --- |
| CCc1nc(C(N)=O)c(Nc2ccc(N3CCC(N4CCN(C)CC4)CC3)c(OC)c2)nc1NC1CCOCC1 [GILT, Gilteritinib] | more effective | YES | many newly formed tumorigenic clusters | grew confluent without tumorigenic clusters | more effective | 80 nM | eliminated | many newly formed tumorigenic clusters | – | – | – |
| CO[C@@H]1[C@H](N(C)C(=O)c2ccccc2)C[C@H]2O[C@]1(C)n1c3ccccc3c3c4c(c5c6ccccc6n2c5c31)C(=O)NC4 [MIDO, Midostaurin] | – | – | grew confluent | – | – | – | – | grew confluent | significant increase | observed | significant increase |
